Data published in patent US12043674B2 (Auburn University, priority 2020, dated 2024).
One purity is given for all peptides; the source may state it once.

Test: general procedure: Fmoc solid-phase peptide synthesis; Rink amide resin; HBTU/DIEA; HOAt/DIC for first amino acid and after proline
Conditions: cyclisation step; for final HPLC purity: 220 nm

## H-APCA-aldehyde
  outcome: No product was observed under the reaction conditions.

## NH2-APGAFE(CHO)Y
  outcome: No product was observed under the reaction conditions.

## cyc(Ala-Gly-Pro-Glu)-Phe
  final HPLC purity: >95%

## cyc(Ala-Gly-Pro-Phe-Glu)-Tyr
  final HPLC purity: >95%

## cyc(Ala-Ile-Gly-Pro-Phe-Ala)
  final HPLC purity: >95%

## cyc(Ala-Lys-Gly-Pro-Asp-Gly-Arg-Ala)-Fluorescein isothiocyanate (FITC)
  final HPLC purity: >95%

## cyc(Ala-Phe-Gly-Pro-Ala)
  final HPLC purity: >95%

## cyc(Ala-Phe-Pro-Glu)-Phe
  final HPLC purity: >95%

## cyc(Ala-Val-Gly-Ala-Phe-Glu-Tyr)-Ala)
  final HPLC purity: >95%

## cyc(Ala-Val-Gly-Pro-Phe-Lys(CO)-Tyr
  final HPLC purity: >95%

## cyc(Asn-Gly-Pro-Glu-Phe)
  final HPLC purity: >95%

## cyc(Asn-Phe-Ile-Pro-Cys-Tyr-Glu)-His
  final HPLC purity: >95%

## cyc(Asn-Phe-Pro-Phe-Glu)-Lys
  final HPLC purity: >95%

## cyc(Asn-Val-Gly-Ala-Phe-Glu)-Tyr
  final HPLC purity: >95%

## cyc(Asn-Val-Gly-Pro-Phe-Glu)-Tyr (NVGPFEY; head-to-tail cyclic; Glu side-chain aldehyde; 1f and 2f)
  final HPLC purity: >95%

## cyc(Asp-Phe-Pro-Glu)-Phe
  final HPLC purity: >95%

## cyc(Asp-Val-Gly-Pro-Phe-Glu)-Tyr
  final HPLC purity: >95%

## cyc(Gln-Asp-Ile-Pro-Tyr-Leu-Glu)-Ser
  final HPLC purity: >95%

## cyc(Gln-Gly-Pro-Glu)-Phe
  final HPLC purity: >95%

## cyc(Gln-Phe-Pro-Tyr-Glu)-Met
  final HPLC purity: >95%

## cyc(Gln-Val-Gly-Ala-Phe-Glu)-Tyr
  final HPLC purity: >95%

## cyc(Gln-Val-Gly-Pro-Phe-Glu)-Tyr
  final HPLC purity: >95%

## cyc(Gln-Val-Gly-Pro-Phe-Phe-Gly)
  final HPLC purity: >95%

## cyc(Lys-Val-Gly-Pro-Phe-Glu)-Tyr
  final HPLC purity: >95%

## cyc(Pro-Phe-Pro-Glu)-Phe
  final HPLC purity: >95%

## cyc(Pro-Val-Gly-Pro-Phe-Glu)-Tyr
  final HPLC purity: >95%

## cyc(Trp-Val-Gly-Pro-Phe-Glu)-Tyr
  final HPLC purity: >95%

## cyc(Tyr-Phe-Pro-Glu)-Phe
  final HPLC purity: >95%

## cyc(Tyr-Val-Gly-Pro-Phe-Glu)-Tyr
  final HPLC purity: >95%

## cyc(Val-Gly-Pro-Glu)-Phe
  final HPLC purity: >95%

## cyc(Val-Phe-Pro-Glu)-Phe
  final HPLC purity: >95%

## cyc(Val-Val-Gly-Pro-Phe-Glu)Tyr)
  final HPLC purity: >95%
